Data reported in publication PMC12049415.
These are yes or no findings as the source states them, for the method shown. Binding seen in cells or lysates may run through a third protein. Some binding calls cover weakened binding; strength is not graded here.

Chains of the proteins cited; added tags and fusions are not shown.
UniProt Q86VY4: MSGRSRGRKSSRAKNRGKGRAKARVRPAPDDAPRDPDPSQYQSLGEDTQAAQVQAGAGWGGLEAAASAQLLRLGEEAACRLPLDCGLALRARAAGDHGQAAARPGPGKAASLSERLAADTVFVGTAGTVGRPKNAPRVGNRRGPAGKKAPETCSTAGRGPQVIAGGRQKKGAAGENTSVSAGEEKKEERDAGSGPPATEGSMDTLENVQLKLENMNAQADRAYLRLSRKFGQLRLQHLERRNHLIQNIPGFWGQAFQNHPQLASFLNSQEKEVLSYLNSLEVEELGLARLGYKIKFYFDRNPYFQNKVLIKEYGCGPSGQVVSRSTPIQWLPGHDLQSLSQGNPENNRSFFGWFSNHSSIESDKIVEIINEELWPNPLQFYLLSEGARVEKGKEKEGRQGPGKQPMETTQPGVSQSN

Columns and labels:
[1] = target: TSPYL5, exogenous, tagged (pcDNA3.1(+)) (human) (UniProt Q86VY4); experiment: co-IP; exogenous tagged TSPYL5 and G3BP1 in SK-N-SH cells, IP with anti-HA or anti-MYC antibodies, western blot
[2] = target: TSPY-like 5 (TSPYL5), endogenous (human (endogenous in SK-N-SH and SH-SY5Y)) (UniProt Q86VY4); experiment: co-IP; endogenous proteins, lysates of SK-N-SH (and SH-SY5Y), antibody overnight at 4 °C, Protein A+G agarose, western blot; also in cells with G3BP1 or TSPYL5 overexpression and after arsenate
[3] = target: G3BP stress granule assembly factor 1 (G3BP1), endogenous (human (endogenous in SK-N-SH and SH-SY5Y)) (UniProt Q13283); experiment: as above
[4] = target: G3BP stress granule assembly factor 1 (G3BP1), endogenous (human (endogenous in SK-N-SH and SH-SY5Y)) (UniProt Q13283); experiment: co-IP; nuclear proteins isolated from SK-N-SH cells, with and without TSPYL5 overexpression
[5] = target: G3BP stress granule assembly factor 1 (G3BP1), endogenous (human (endogenous in SK-N-SH and SH-SY5Y)) (UniProt Q13283); experiment: co-IP; two-step Co-IP in SK-N-SH cells
[6] = target: RAN binding protein 2 (RanBP2), endogenous (human (endogenous in SK-N-SH)) (UniProt P49792); experiment: co-IP; endogenous proteins, lysates of SK-N-SH (and SH-SY5Y), antibody overnight at 4 °C, Protein A+G agarose, western blot; also in cells with G3BP1 or TSPYL5 overexpression and after arsenate
[7] = target: RAN binding protein 2 (RanBP2), endogenous (human (endogenous in SK-N-SH)) (UniProt P49792); experiment: co-IP; nuclear proteins isolated from SK-N-SH cells, with and without TSPYL5 overexpression
[8] = target: G3BP stress granule assembly factor 1 (G3BP1), endogenous (human (endogenous in SK-N-SH and SH-SY5Y)) (UniProt Q13283); experiment: co-IP; p53 with G3BP1 in the presence of TSPYL5 (Supplementary Fig. 10a, b; legend and set-up not shown)
[9] = target: RAN binding protein 2 (RanBP2), endogenous (human (endogenous in SK-N-SH)) (UniProt P49792); experiment: co-IP; two-step Co-IP in SK-N-SH cells

G3BP1, exogenous, tagged (pcDNA3.1(+)) (from UniProt Q13283 1-466)
binding [1]: binds

G3BP stress granule assembly factor 1 (G3BP1), endogenous (from UniProt Q13283 1-466)
binding [2]: binds

RAN binding protein 2 (RanBP2), endogenous (from UniProt P49792 1-3224)
binding [3]: binds
binding [4]: binds
binding [5]: binds

p53, endogenous (wild-type) (from UniProt P04637 1-393)
binding [6]: binds
binding [7]: binds
binding [8]: binds
binding [9]: binds
binding [5]: binds
